We go through three molecules from publication PMC8928218.

Assay [1] concerns the target T1, SEPT6 with N-terminal 6His-tag (human) (UniProt Q14141).
T1 sequence: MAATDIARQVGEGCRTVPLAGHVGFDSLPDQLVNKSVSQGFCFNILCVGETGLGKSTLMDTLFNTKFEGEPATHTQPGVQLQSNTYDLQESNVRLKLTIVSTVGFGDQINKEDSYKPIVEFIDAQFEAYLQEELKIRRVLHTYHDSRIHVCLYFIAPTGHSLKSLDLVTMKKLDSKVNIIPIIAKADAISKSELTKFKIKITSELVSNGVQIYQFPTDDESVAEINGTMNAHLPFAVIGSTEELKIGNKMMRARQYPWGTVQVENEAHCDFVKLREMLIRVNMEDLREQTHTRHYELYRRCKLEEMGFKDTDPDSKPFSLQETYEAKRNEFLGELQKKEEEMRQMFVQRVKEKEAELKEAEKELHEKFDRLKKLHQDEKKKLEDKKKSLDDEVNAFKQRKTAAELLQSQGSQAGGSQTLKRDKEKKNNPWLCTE
In words: glycerol density gradient centrifugation; IMAC enriched septin preparation from co-expression in E. coli; fractions compared with a 670 kD marker protein.

Assay [2] concerns the target T1, SEPT6 with N-terminal 6His-tag (human). Description: co-purification by IMAC and SEC; SEPT2, 6His-SEPT6 and SEPT7 co-expressed in E. coli without SEPT9; same purification pipeline as for octamers.

No constants are given. Whether binding was seen depends on the method and setting. Some results given as binding are weak or reduced against the parent protein; the word gives no strength. Tags and fused reporters may be left off the sequences shown.

B1: SEPT9_(G568) (domain or fragment, UniProt Q9UHD8 1-568)
chain: MKKSYSGGTRTSSGRLRRLGDSSGPALKRSFEVEEVETPNSTPPRRVQTPLLRATVASSTQKFQDLGVKNSEPSARHVDSLSQRSPKASLRRVELSGPKAAEPVSRRTELSIDISSKQVENAGAIGPSRFGLKRAEVLGHKTPEPAPRRTEITIVKPQESAHRRMEPPASKVPEVPTAPATDAAPKRVEIQMPKPAEAPTAPSPAQTLENSEPAPVSQLQSRLEPKPQPPVAEATPRSQEATEAAPSCVGDMADTPRDAGLKQAPASRNEKAPVDFGYVGIDSILEQMRRKAMKQGFEFNIMVVGQSGLGKSTLINTLFKSKISRKSVQPTSEERIPKTIEIKSITHDIEEKGVRMKLTVIDTPGFGDHINNENCWQPIMKFINDQYEKYLQEEVNINRKKRIPDTRVHCCLYFIPATGHSLRPLDIEFMKRLSKVVNIVPVIAKADTLTLEERVHFKQRITADLLSNGIDVYPQKEFDEDSEDRLVNEKFREMIPFAVVGSDHEYQVNGKRILGRKTKWGTIEVENTTHCEFAYLRDLLIRTHMQNIKDITSSIHFEAYRVKRLNEG
As to B1, in assay [1], the binding result is “binds”.

B2: SEPT2 (protein, UniProt Q15019 1-361)
chain: MSKQQPTQFINPETPGYVGFANLPNQVHRKSVKKGFEFTLMVVGESGLGKSTLINSLFLTDLYPERVIPGAAEKIERTVQIEASTVEIEERGVKLRLTVVDTPGYGDAINCRDCFKTIISYIDEQFERYLHDESGLNRRHIIDNRVHCCFYFISPFGHGLKPLDVAFMKAIHNKVNIVPVIAKADTLTLKERERLKKRILDEIEEHNIKIYHLPDAESDEDEDFKEQTRLLKASIPFSVVGSNQLIEAKGKKVRGRLYPWGVVEVENPEHNDFLKLRTMLITHMQDLQEVTQDLHYENFRSERLKRGGRKVENEDMNKDQILLEKEAELRRMQEMIARMQAQMQMQMQGGDGDGGALGHHV
As for B2, the binding result in assay [2] and in assay [1] was “binds” throughout.

B3: SEPT7 (protein, UniProt Q16181 1-437)
chain: MSVSARSAAAEERSVNSSTMVAQQKNLEGYVGFANLPNQVYRKSVKRGFEFTLMVVGESGLGKSTLINSLFLTDLYSPEYPGPSHRIKKTVQVEQSKVLIKEGGVQLLLTIVDTPGFGDAVDNSNCWQPVIDYIDSKFEDYLNAESRVNRRQMPDNRVQCCLYFIAPSGHGLKPLDIEFMKRLHEKVNIIPLIAKADTLTPEECQQFKKQIMKEIQEHKIKIYEFPETDDEEENKLVKKIKDRLPLAVVGSNTIIEVNGKRVRGRQYPWGVAEVENGEHCDFTILRNMLIRTHMQDLKDVTNNVHYENYRSRKLAAVTYNGVDNNKNKGQLTKSPLAQMEEERREHVAKMKKMEMEMEQVFEMKVKEKVQKLKDSEAELQRRHEQMKKNLEAQHKELEEKRRQFEDEKANWEAQQRILEQQNSSRTLEKNKKKGKIF
With B3, the binding entry in assay [2] and in assay [1] was “binds” in each case.
